Experimental data from patent US10064926B2, “Peptides and combination of peptides for use in immunotherapy against hepatocellular carcinoma (HCC) and other cancers” (Immatics biotechnologies GmbH, priority 2014, dated 2018).

Tests used:
[1] = tested on: primary HCC tissue samples; experiment: Identification and label-free LC-MS relative quantitation of HLA-presented peptides (presentation profiles/scores), HCC versus normal tissues; set-up: species or system human; key to PeptidePresentation (presentation score): very highly over-presented on tumors compared to a panel of normal tissues (+++); highly over-presented on tumors compared to a panel of normal tissues (++); over-presented on tumors compared to a panel of normal tissues (+); settings: for PeptidePresentation (presentation score): HCC tumors compared to a panel of normal tissues; for over-presentation in HCC compared with normal tissues: FIG. 1 presentation profiles
[2] = tested on: tumor samples of other tumor types; experiment: Over-presentation of peptides on additional tumor types versus normal tissues (LC-MS); set-up: species or system human; settings: for Other relevant organs/diseases (additional tumor types on which the peptide was found over-presented) / Additional Entities (additional tumor types on which the peptide was found over-presented): over-presentation on more than 5% of the measured tumor samples, or presentation on more than 5% with ratio of geometric means tumor vs normal tissues larger than 3; for number of cancer tissues on which the peptide was presented / number of normal tissues on which the peptide was presented / number of cell-lines on which the peptide was presented: FIG. 1, only samples on which the peptide was presented

Substance | PeptidePresentation (presentation score) [1] | Other relevant organs/diseases (additional tumor types on which the peptide was found over-presented) [2] | Additional Entities (additional tumor types on which the peptide was found over-presented) [2] | over-presentation in HCC compared with normal tissues [1] | number of cancer tissues on which the peptide was presented [2] | number of normal tissues on which the peptide was presented [2] | number of other disease samples on which the peptide was presented ([2]; FIG. 1M, encephalocele) | number of cell-lines on which the peptide was presented [2]
34 (SLAEGTATV; listed as Homo sapiens) [compound 34] | +++ | Colon, Rectum |  |  |  |  |  | 
38 (ALADVVHEA; listed as Homo sapiens) [compound 38] | + |  | BRCA, OC |  |  |  |  | 
47 (FLDTPIAKV; listed as Homo sapiens) [compound 47] | + | Brain, Colon, Rectum | NSCLC, GC, Esophageal Cancer | over-presentation | 35 | 2 | 1 | 
51 (GLAEELVRA; listed as Homo sapiens) [compound 51] | + | Brain |  |  |  |  |  | 
52 (GLFNAELLEA; listed as Homo sapiens) [compound 52] | + |  | SCLC |  |  |  |  | 
54 (GLLDPNVKSIFV; listed as Homo sapiens) [compound 54] | +++ | Kidney, Brain | SCLC, SCLC, OC, Urinary bladder cancer |  |  |  |  | 
55 (GLYGRTIEL; listed as Homo sapiens) [compound 55] | + | Kidney | SCLC |  |  |  |  | 
57 (HLTEAIQYV; listed as Homo sapiens) [compound 57] | ++ |  | NHL |  |  |  |  | 
58 (ILADLNLSV; listed as Homo sapiens) [compound 58] | + | Pancreas | BRCA |  |  |  |  | 
59 (ILADTFIGV; listed as Homo sapiens) [compound 59] | ++ | Colon, Rectum, Pancreas | NSCLC, SCLC, GC, OC, Urinary bladder cancer, Gallbladder Cancer, Bile Duct Cancer, NHL |  |  |  |  | 
60 (ILSPLSVAL; listed as Homo sapiens) [compound 60] | + | Kidney, Pancreas |  |  |  |  |  | 
63 (KIDEKNFVV; listed as Homo sapiens) [compound 63] |  |  | SCLC, Brain Cancer, Urinary bladder cancer, Uterine Cancer | over-presentation | 16 | 1 |  | 5
70 (KLLDLETERILL; listed as Homo sapiens) [compound 70] | ++ | Colon, Rectum | OC, Uterine Cancer |  |  |  |  | 
72 (KLSEAVTSV; listed as Homo sapiens) [compound 72] | + | Kidney |  |  |  |  |  | 
77 (LLHEENFSV; listed as Homo sapiens) [compound 77] | + | Kidney, Colon, Rectum | NSCLC, SCLC, OC, Esophageal Cancer, Urinary bladder cancer, Uterine Cancer, Gallbladder Cancer, Bile Duct Cancer, NHL |  |  |  |  | 
81 (NLASFIEQVAV; listed as Homo sapiens) [compound 81] | ++ | Kidney, Colon, Rectum, Pancreas | SCLC, PrC, OC, Uterine Cancer, NHL |  |  |  |  | 
86 (RLAAFYSQV; listed as Homo sapiens) [compound 86] | +++ |  | AML |  |  |  |  | 
88 (RLIDRIKTV; listed as Homo sapiens) [compound 88] | +++ | Brain, Colon, Rectum | NSCLC, SCLC, OC, AML, NHL |  |  |  |  | 
89 (RLIEEIKNV; listed as Homo sapiens) [compound 89] | +++ |  | SCLC |  |  |  |  | 
91 (RLPDIPLRQV; listed as Homo sapiens) [compound 91] | + |  | NSCLC, CLL, Urinary bladder cancer, NHL |  |  |  |  | 
92 (RLPPDTLLQQV; listed as Homo sapiens) [compound 92] |  |  | Urinary bladder cancer | over-presentation | 17 | 2 |  | 2
94 (RMSDVVKGV; listed as Homo sapiens) [compound 94] | +++ |  | BRCA, OC |  |  |  |  | 
96 (SLLEEPNVIRV; listed as Homo sapiens) [compound 96] | ++ | Kidney | Melanoma, Gallbladder Cancer, Bile Duct Cancer |  |  |  |  | 
99 (SLSAFLPSL; listed as Homo sapiens) [compound 99] | +++ |  | OC, Esophageal Cancer, Gallbladder Cancer, Bile Duct Cancer, NHL |  |  |  |  | 
101 (SLWEGGVRGV; listed as Homo sapiens) [compound 101] | +++ | Brain | Melanoma |  |  |  |  | 
104 (SVWFGPKEV; listed as Homo sapiens) [compound 104] |  |  | SCLC, Melanoma, Urinary bladder cancer, PC | over-presentation | 16 | 1 |  | 9
111 (TVMDIDTSGTFNV; listed as Homo sapiens) [compound 111] | + |  | SCLC, CRC, CLL, Melanoma, OC, Urinary bladder cancer, Gallbladder Cancer, Bile Duct Cancer, NHL |  |  |  |  | 
119 (YLDKNLTVSV; listed as Homo sapiens) [compound 119] | + | Kidney |  |  |  |  |  | 
